Measured values published in paper PMC10314905, “Architecture of a complete Bce-type antimicrobial peptide resistance module” (Nature Communications, 2023).
Changes are numbered by the printed parent chain. Names may count otherwise. These are yes or no findings as the source states them, for the method shown. For part of these data: Binding seen in cells or lysates may run through a third protein. Some entries that bind do so weakly or less than the wild type. For part of these data: Tags and fused reporters may be left off the sequences shown. Values belong to the binder of their own block, whether it stands above or below them.

Assays:
[1] = molecular target: T1, BceAB ABC transporter (BceA2:BceB1) (B. subtilis, UniProt O34697 2-253; O34741 1-646); experiment: pull-down + SEC; proteins co-expressed in E. coli from one plasmid; membranes solubilised with 1% LMNG; His6-BceA held on Co3+-Talon resin, eluted with 250 mM imidazole; Superdex 200 Increase 10/300 GL in 25 mM Tris pH 8, 150 mM NaCl, 0.005% LMNG; SDS-PAGE of peak fractions; chromatogram compared with isolated …
T1 construct: BceA of Bacillus subtilis, as m1; BceB of Bacillus subtilis, as m2; The construct for isolated BceAB (without BceS) is not described here; also called BceAB transporter; isolated BceAB; source: E. coli C41(DE3), co-expressed (with or without BceS), purified (LMNG, Co3+-Talon, Superdex 200); not shown: His6, N-terminal, kept; copies: 2 + 1
T1 sequence 1: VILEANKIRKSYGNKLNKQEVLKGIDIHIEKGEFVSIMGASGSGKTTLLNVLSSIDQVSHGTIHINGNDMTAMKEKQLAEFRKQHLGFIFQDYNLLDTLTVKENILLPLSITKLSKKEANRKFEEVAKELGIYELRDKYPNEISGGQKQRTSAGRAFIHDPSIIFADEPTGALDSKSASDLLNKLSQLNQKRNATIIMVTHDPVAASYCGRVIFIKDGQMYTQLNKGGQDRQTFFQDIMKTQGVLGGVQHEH
T1 sequence 2: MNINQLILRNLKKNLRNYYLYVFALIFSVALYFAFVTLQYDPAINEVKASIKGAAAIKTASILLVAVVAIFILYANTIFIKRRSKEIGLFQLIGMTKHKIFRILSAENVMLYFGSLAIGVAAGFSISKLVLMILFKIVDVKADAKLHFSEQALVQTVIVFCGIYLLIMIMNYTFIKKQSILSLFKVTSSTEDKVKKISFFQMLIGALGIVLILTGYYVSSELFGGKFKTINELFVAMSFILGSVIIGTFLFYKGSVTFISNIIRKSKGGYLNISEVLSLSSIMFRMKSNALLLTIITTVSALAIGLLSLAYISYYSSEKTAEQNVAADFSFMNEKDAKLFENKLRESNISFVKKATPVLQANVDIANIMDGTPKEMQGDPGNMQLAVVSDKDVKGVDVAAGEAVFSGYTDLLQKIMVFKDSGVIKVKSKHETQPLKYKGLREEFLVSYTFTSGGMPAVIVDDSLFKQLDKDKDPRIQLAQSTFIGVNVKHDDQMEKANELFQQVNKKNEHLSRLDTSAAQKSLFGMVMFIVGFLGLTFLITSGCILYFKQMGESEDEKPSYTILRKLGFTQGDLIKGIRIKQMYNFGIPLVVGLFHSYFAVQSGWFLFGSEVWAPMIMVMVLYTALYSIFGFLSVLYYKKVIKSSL

[2] = molecular target: T2, BceB, membrane-spanning permease of the ABC transporter BceAB (B. subtilis) (UniProt O34741); experiment: cryo-EM structure; nucleotide-free BceAB-S, co-expressed and co-purified complex in LMNG at ~7 mg/mL; Titan Krios, K3; both purified
T2 sequence: T1 sequence 2

[3] = molecular target: T1, BceAB ABC transporter (BceA2:BceB1); experiment: as above
[4] = molecular target: T1, BceAB ABC transporter (BceA2:BceB1); experiment: cryo-EM structure; BceAB-S, co-expressed and co-purified complex in LMNG, incubated on ice with 5 mM ATPγS and 5 mM MgCl2 for 30 min before freezing; both purified
[5] = molecular target: T3, BceA, ATPase (nucleotide binding domain) subunit of the ABC transporter BceAB (B. subtilis) (UniProt O34697); experiment: pull-down + SEC; proteins co-expressed in E. coli from one plasmid; membranes solubilised with 1% LMNG; His6-BceA held on Co3+-Talon resin, eluted with 250 mM imidazole; Superdex 200 Increase 10/300 GL in 25 mM Tris pH 8, 150 mM NaCl, 0.005% LMNG; SDS-PAGE of peak fractions; chromatogram compared with isolated …
T3 sequence: T1 sequence 1

[6] = molecular target: T3, BceA, ATPase (nucleotide binding domain) subunit of the ABC transporter BceAB (B. subtilis); experiment: cryo-EM structure; nucleotide-free BceAB-S, co-expressed and co-purified complex in LMNG at ~7 mg/mL; Titan Krios, K3; both purified

binding [1]: binds
binding [2]: binds
binding [3]: binds
binding [4]: binds
B1: BceS sensor histidine kinase (natural protein, B. subtilis, UniProt O35044 1-334, looked up)
chain: MIKAFLIERRSWIAAFLFQQALMLFIAFVDPSISFGNVLYMVYLCILFFIIFLWFRYRKETAFYKSLKTWENNLDVTAINEPETPFEAMVERSIAGQTEHLKQTAARHRLALENEKDELMAWIHEVKTPLTAMHLIIDRMEEKALKSQLSYEWLRIHLLLDQQLHQKRISFIENDLSVEFIQLQPLIFKEIKDLQSWCIQKGIGFDIQLEAKEVLSDAKWLAFIIRQLLTNAVKYSEASEIEIKSFQKGEQTQLQVKDCGRGIDPKDVPRIFDKGFTSTTDHHDQASTGMGLYLAKKAAAPLLIHIDVESEFGAGTVFTLTFPIRNQFEHVISV
notes: BceS of Bacillus subtilis; gene PCR amplified from B. subtilis genomic DNA; Dimer in the BceAB-S complex; also called BceS kinase; BceS dimer

binding [1]: binds
B2: BceS E115K with H124Q substitution (protein, UniProt O35044 1-334)
chain: B1 chain with E115K, H124Q

binding [1]: binds
B3: BceS E115K/K116E double charge swap variant (protein, UniProt O35044 1-334)
chain: B1 chain with E115K, K116E

binding [1]: binds
B4: BceS E115K variant (protein, UniProt O35044 1-334)
chain: B1 chain with E115K

binding [5]: binds
binding [6]: binds
B5: BceB, membrane-spanning permease of the ABC transporter BceAB (protein, UniProt O34741 1-646)
chain: T1 sequence 2
